Experimental data: PubChem BioAssay AID1347075 (National Center for Advancing Translational Sciences (NCATS), 2019)
About 5,500 (1.4%) of roughly 400,000 compounds were called active. Inconclusive results, whose numbers are uncertain, are shown with a selection of clear calls. Calls follow the shape of the dose curve; as a rule, active = well fitted cell-killing curve with a large enough effect; inconclusive = small, poorly fitted or top-dose-only effect, or effect the other way; inactive = flat fitted curve, though single readings scatter. A potency beside an inconclusive call is a rough fit, not a confirmed value.

Test: qHTS assay for MDR1-selective chemotherapeutics: Primary screen using the parental adenocarcinoma cell KB-3-1; also: nearly all actives have a fitted effect of over 60% in size
Conditions: KB-3-1 viability, CellTiter-Glo ATP luminescence, 72 h; activity change, negative = cytotoxic: at 46.1 µM (top of the series)
How it was run: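 Cytotoxicity in the drug-sensitive parental line KB-3-1 was scored as loss of CellTiter-Glo luminescence following 72 h incubation with compound. Values come from curve fitting of normalized concentration-response data.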
% is scaled to controls: 0 for no effect and ±100 for the full control effect; potency is read from the fitted curve at half-maximal effect.

Row | SMILES | Potency | activity change, negative = cytotoxic
1 | O=C(/C=C/c1ccccc1)c1c(O)n(CCc2ccccc2)c(=O)[nH]c1=O | active: 14.6 µM | –
2 | C=CCn1c(O)c(N=Nc2c(C)n(C)n(-c3ccccc3)c2=O)c(=O)[nH]c1=S | inconclusive: 18.4 µM [cytotoxic, single point] | –
3 | COc1ccc(C(C)=O)cc1Cc1c(O)[nH]c(=S)[nH]c1=O | inconclusive: 20.6 µM [rising, single point] | –
4 | C=C1C(=O)OC2CC3(C)OC3CCC(C)=CC(OC(C)=O)C12 (stereo not given) | inconclusive: 29.1 µM [cytotoxic, single point] | –
5 | Cc1ccsc1C(=O)C1CCCN(Cc2cnc(N3CCOCC3)s2)C1 (stereo not given) | inconclusive: 13 µM [cytotoxic, single point] | –
6 | Cc1ccsc1C(=O)C1CCCN(Cc2sc(N(C)C)nc2Cl)C1 (stereo not given) | inconclusive: 0.259 µM [cytotoxic, full curve] | –
7 | CCOC(=O)[C@]12Cc3cc(C)ccc3[C@H]1N(C)C(=O)c1cc(OC)ccc12 | active: 7.31 µM | –
8 | CCOC(=O)CNC(=O)N1Cc2cc(-c3ccc(OC)cc3)ccc2-n2nncc2C1 | inactive | –
9 | CCN(CC)c1ccc(CNCCc2ccc(F)cc2)cc1 | inconclusive: 29.1 µM [cytotoxic, single point] | –
10 | CC(C)Nc1ccc(Nc2ccccc2)cc1 | active: 18.4 µM | –
11 | COC(=O)C1=C(c2ccc(F)cc2OCc2ccccc2)C[C@@H]2CC[C@H]1N2C(=O)NC1CCN(Cc2ccccc2)CC1 | inconclusive: 29.1 µM [cytotoxic, single point] | –
12 | N#Cc1ccc2nc(-c3ccc(CN4CCC(n5c(=O)[nH]c6ccccc65)CC4)cc3)c(-c3ccccc3)nc2c1 | inconclusive: 29.1 µM [cytotoxic, single point] | –
13 | CCOc1cc(CNC(C)C(O)c2ccccc2)cc(Cl)c1OCC (stereo not given) | inconclusive: 29.1 µM [cytotoxic, single point] | –
14 | CCCCCCn1c(=O)c(C(=O)Nc2c(C)n(C)n(-c3ccccc3)c2=O)c(O)c2ccccc21 | inconclusive: 11.6 µM [cytotoxic, partial curve, poor fit] | –
15 | CC(C)[C@@]1(NC(=O)[C@@H]2C[C@@H]3c4cccc5[nH]cc(c45)C[C@H]3N(C)C2)O[C@@]2(O)[C@@H]3CCCN3C(=O)[C@H](Cc3ccccc3)N2C1=O | inactive | –
16 | COC(=O)C1=C(c2ccc(F)cc2OCc2ccccc2)C[C@@H]2CC[C@H]1N2C(=O)NCc1cccc(OC)c1 | inconclusive: 25.9 µM [cytotoxic, single point] | –
17 | COc1ccc(-n2c(O)c(C=NCCN3CCN(C(C)=O)CC3)c(=O)[nH]c2=S)cc1 | inactive | –
18 | CC(C)CNc1c2c(nc3ccccc13)CCC2 | inconclusive: 20.6 µM [cytotoxic, single point] | –
19 | C=C1C(=O)[C@@]23C[C@H]4[C@@H]5[C@@]6(C)CCC[C@@]57[C@@H]2[C@@H](O)[C@@H]1C[C@H]3[C@H]7N4C6 | inconclusive: 1.3 µM [cytotoxic, full curve] | –
20 | CCCCNC(=O)c1c(N)n(CCCOC)c2nc3ccccc3nc12 | inactive | –

Row | SMILES | Potency | activity change, negative = cytotoxic
21 | CCCCn1c(=O)c(C(=O)Nc2ccccn2)c(O)c2ccccc21 | active: 10.3 µM | –
22 | COc1cccc(C(c2nnnn2C2CCCCC2)N2CCC3(CC2)C(=O)NCN3c2ccccc2)c1OC (stereo not given) | inconclusive: 29.1 µM [cytotoxic, single point] | –
23 | CC(=O)OC1CC(OC2C(O)CC(OC3C(O)CC(OC4CCC5(C)C(CCC6C5CCC5(C)C(C7=CC(=O)OC7)CCC65O)C4)OC3C)OC2C)OC(C)C1OC1OC(CO)C(O)C(O)C1O (stereo not given) | inconclusive: 0.259 µM [cytotoxic, full curve, poor fit] | –
24 | C=CCn1c(O)c(C(C)=NCc2ccc3c(c2)OCO3)c(=O)[nH]c1=O | inactive | –
25 | O=C(O)CCCc1ccc(N(CCCl)CCCl)cc1 | inactive | –
26 | COc1ccc(Cn2c(N)c(C(=O)NCc3ccco3)c3nc4ccccc4nc32)cc1 | inconclusive: 29.1 µM [cytotoxic, single point] | –
27 | Nc1c(C(=O)NCCCc2ccccc2)c2nc3ccccc3nc2n1Cc1cccs1 | inconclusive: 29.1 µM [cytotoxic, single point] | –
28 | Cc1c(NS(=O)(=O)c2ccccc2)ccc([N+](=O)[O-])c1Cl | inconclusive: 20.6 µM [cytotoxic, single point] | –
29 | O=c1[nH]c2ccccc2n1C1CCN(C(c2ccccc2)c2nnnn2-c2ccc3c(c2)OCCO3)CC1 (stereo not given) | inconclusive: 29.1 µM [cytotoxic, single point] | –
30 | COC(=O)C1=C(c2ccc(OCc3ccccc3)cc2)C[C@@H]2CC[C@H]1N2C(=O)NCc1ccc(OC)c(OC)c1 | inconclusive: 20.6 µM [cytotoxic, single point] | –
31 | Cc1cc(C)cc(N2C(=O)NC(=O)/C(=C\c3cccn3-c3ccc(Cl)cc3)C2=O)c1 | inconclusive: 18.4 µM [cytotoxic, single point] | –
32 | Cc1cc(-c2ccccc2)cc(C)[n+]1Cc1ccccc1 | active: 5.8 µM | –
33 | CC(C)CCNC(=O)c1c(N)n(CC2CCCO2)c2nc3ccccc3nc12 (stereo not given) | inconclusive: 20.6 µM [cytotoxic, single point] | –
34 | CC1CCOC(=O)C=CC=CC(=O)OC2CC3OC4C5OC5(C)C(O)CC4(COC(=O)C1O)C2(C)C31CO1 (stereo not given) | active: 0.206 µM | –
35 | Cc1ccc(C)c(OCc2cc(C(=O)N3C[C@H]4C[C@@H](C3)c3cccc(=O)n3C4)no2)c1 | inactive | –
36 | C[C@H]1CN([C@@H](C)CO)C(=O)CCCn2nncc2CO[C@H]1CN(C)C(=O)Oc1ccccc1 | inconclusive: 23.1 µM [rising, single point] | –
37 | COC1/C=C/C=C(\C)Cc2cc(O)c(Cl)c(c2)N(C)C(=O)CC(OC(=O)C(C)C)C2(C)OC2C(C)C2CC1(O)NC(=O)O2 (stereo not given) | inconclusive: 0.0018 µM [cytotoxic, full curve, poor fit] | –
38 | O=C(NCC1=C(c2ccc3ccccc3c2)C[C@@H]2CC[C@H]1N2Cc1ccco1)c1ccc([N+](=O)[O-])cc1 | inconclusive: 25.9 µM [cytotoxic, single point] | –
39 | Cc1cc(/C=C2\C(=O)NC(=O)N(C)C2=O)c(C)n1-c1ccc2c(c1)OCO2 | – | inconclusive: -13.7%
40 | c1ccc2nc(OCCN3CC3)ccc2c1 | inconclusive: 18.4 µM [cytotoxic, single point] | –

By substructure, those above with a nitro group on carbon.
Row | SMILES | Potency | activity change, negative = cytotoxic
28 | Cc1c(NS(=O)(=O)c2ccccc2)ccc([N+](=O)[O-])c1Cl | inconclusive: 20.6 µM [cytotoxic, single point] | –
38 | O=C(NCC1=C(c2ccc3ccccc3c2)C[C@@H]2CC[C@H]1N2Cc1ccco1)c1ccc([N+](=O)[O-])cc1 | inconclusive: 25.9 µM [cytotoxic, single point] | –

Later entries.

Row | SMILES | Potency | activity change, negative = cytotoxic
41 | COC(=O)C1=C(c2cc3ccccc3o2)C[C@@H]2CC[C@H]1N2C(=O)N1CCCC1 | inconclusive: 16.4 µM [cytotoxic, single point] | –
42 | Cc1ccc(C)c(NC(=S)NCCc2cnc[nH]2)c1 | inconclusive: 29.1 µM [rising, single point] | –
43 | CC(=NNC(=S)N1CC2CCC(CC2)C1)c1nccs1 | inconclusive: 0.517 µM [cytotoxic, full curve, poor fit] | –
44 | COc1cc(Cn2c(N)c(C(=O)NCc3ccco3)c3nc4ccccc4nc32)cc(OC)c1OC | active: 23.1 µM | –
45 | COc1ccc(C2=CC(c3ccc(OC)c(OC)c3)c3c(c4ccccc4oc3=O)O2)cc1OC (stereo not given) | inconclusive: 29.1 µM [cytotoxic, single point] | –
46 | CCCCCn1c(=O)c(C(=O)Nc2cccc(C)c2)c(O)c2ccccc21 | inconclusive: 10.3 µM [cytotoxic, single point] | –
47 | COC(=O)C1=C(c2ccc(-c3ccccc3)c(F)c2)C[C@@H]2CC[C@H]1N2C(=O)NCCOc1ccccc1Cl | inconclusive: 20.6 µM [cytotoxic, single point] | –
48 | OC(CC#CCN1CCCCCC1)(c1ccccc1)C1CCCC1 (stereo not given) | inconclusive: 18.4 µM [cytotoxic, single point] | –
49 | CCOC(=O)C1(CCCc2ccccc2)CCN(C2CCCC2)CC1 | inconclusive: 29.1 µM [cytotoxic, single point] | –
50 | COc1cc([C@@H]2c3cc4c(cc3[C@H](OC(C)=O)[C@H]3COC(=O)[C@H]23)OCO4)cc(OC)c1OC | inconclusive: 0.326 µM [cytotoxic, full curve, poor fit] | –
51 | Fc1cccc(-c2ccc3c(c2)CN(C(=S)NCCc2ccccc2)Cc2cnnn2-3)c1 | inactive | –
52 | NCCNc1ccc([N+](=O)[O-])c2cccnc12 | inconclusive: 18.4 µM [cytotoxic, partial curve, poor fit] | –
53 | CCOP(=S)(OCC)Oc1cc(C)oc(=O)c1Cl | inconclusive: 29.1 µM [rising, single point] | –
54 | CC(=O)O[C@@H]1/C=C/[C@](C)(O)C[C@@H](C)C/C=C/[C@H]2[C@H](O)C(C)=C(C)[C@H]3[C@H](Cc4ccccc4)NC(=O)[C@@]123 | inconclusive: 0.517 µM [cytotoxic, full curve, poor fit] | –
55 | CCOC(=O)[C@]12Cc3c(cc(OC)c(OC)c3OC)[C@H]1N(CCC(=O)OC)C(=O)c1ccccc12 | active: 8.2 µM | –
56 | COc1cccc(C(c2nnnn2-c2ccc3c(c2)OCCO3)N2CCC(n3c(=O)[nH]c4ccccc43)CC2)c1OC (stereo not given) | inconclusive: 29.1 µM [cytotoxic, single point] | –
57 | O=Cc1cn(CCCOc2ccccc2)c2ccccc12 | inactive | –
58 | OC[C@H]1O[C@@H](n2cnc3cc(Cl)c(Cl)cc32)[C@H](O)[C@@H]1O | inconclusive: 18.4 µM [cytotoxic, single point] | –
59 | O=c1c2cc(Cl)cc(Cl)c2nc(CN2CCOCC2)n1-c1ccccc1F | inconclusive: 29.1 µM [cytotoxic, single point] | –
60 | Cc1cccc(NP(=O)(Oc2ccccc2)Oc2ccccc2)c1C | inconclusive: 29.1 µM [cytotoxic, single point] | –
